Reference: the supplement of paper PMC10849652
The other results are listed elsewhere or left out.

By UniProt entry, the sequences of proteins in these tests, tags left out. Where a name states a change or a piece, a line headed by the entry shows the natural chain unless it says otherwise.
UniProt Q96S97: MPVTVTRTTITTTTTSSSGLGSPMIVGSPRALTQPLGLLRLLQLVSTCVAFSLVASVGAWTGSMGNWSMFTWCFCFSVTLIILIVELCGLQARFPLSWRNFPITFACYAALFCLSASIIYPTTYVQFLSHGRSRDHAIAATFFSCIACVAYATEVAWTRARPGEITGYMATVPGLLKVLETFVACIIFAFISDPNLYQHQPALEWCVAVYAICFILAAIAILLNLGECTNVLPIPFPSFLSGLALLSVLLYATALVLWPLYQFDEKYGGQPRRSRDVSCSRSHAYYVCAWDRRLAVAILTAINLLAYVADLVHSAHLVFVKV
UniProt Q8IW45: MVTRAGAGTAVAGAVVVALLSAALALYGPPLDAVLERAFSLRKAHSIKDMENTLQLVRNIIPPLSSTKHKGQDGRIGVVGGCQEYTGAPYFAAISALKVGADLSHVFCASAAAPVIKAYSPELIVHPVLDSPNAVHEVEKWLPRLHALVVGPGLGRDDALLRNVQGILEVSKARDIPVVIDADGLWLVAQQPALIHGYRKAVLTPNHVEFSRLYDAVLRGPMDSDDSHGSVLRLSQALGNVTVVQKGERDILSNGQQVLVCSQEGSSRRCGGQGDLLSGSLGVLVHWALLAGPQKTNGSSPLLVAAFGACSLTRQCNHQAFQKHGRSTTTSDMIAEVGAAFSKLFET
UniProt P54920: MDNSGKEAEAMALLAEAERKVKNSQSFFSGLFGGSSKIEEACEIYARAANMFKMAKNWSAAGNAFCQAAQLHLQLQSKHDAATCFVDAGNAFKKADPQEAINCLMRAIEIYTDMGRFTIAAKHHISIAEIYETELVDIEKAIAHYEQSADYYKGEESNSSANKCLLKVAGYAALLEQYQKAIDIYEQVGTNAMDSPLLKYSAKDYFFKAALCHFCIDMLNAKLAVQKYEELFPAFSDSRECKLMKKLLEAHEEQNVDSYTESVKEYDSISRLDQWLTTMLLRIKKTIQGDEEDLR
UniProt Q8NI08: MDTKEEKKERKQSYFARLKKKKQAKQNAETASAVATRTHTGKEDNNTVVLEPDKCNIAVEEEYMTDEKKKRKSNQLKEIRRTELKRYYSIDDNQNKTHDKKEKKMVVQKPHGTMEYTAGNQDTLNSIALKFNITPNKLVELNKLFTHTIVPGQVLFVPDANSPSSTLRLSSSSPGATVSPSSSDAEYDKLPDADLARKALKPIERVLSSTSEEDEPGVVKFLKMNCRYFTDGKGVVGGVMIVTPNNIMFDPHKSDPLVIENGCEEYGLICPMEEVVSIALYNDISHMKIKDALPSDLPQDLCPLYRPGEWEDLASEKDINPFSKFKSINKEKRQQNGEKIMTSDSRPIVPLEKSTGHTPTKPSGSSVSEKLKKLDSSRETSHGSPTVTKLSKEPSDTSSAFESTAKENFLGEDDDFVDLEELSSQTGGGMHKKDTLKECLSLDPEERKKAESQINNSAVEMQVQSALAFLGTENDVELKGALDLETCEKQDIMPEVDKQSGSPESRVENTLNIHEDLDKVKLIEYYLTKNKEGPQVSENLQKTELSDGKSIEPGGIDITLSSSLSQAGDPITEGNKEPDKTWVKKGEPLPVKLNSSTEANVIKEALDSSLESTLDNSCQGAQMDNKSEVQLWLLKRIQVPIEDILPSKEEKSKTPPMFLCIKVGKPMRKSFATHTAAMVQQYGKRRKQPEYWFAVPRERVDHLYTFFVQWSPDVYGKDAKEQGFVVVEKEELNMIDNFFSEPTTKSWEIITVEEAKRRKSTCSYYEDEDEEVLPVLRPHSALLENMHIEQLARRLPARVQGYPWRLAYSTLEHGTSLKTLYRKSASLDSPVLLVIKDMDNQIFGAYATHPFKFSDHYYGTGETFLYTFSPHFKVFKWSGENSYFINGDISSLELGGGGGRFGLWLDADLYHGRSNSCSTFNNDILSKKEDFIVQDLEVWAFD
UniProt Q8NFP9, whole entry, looked up: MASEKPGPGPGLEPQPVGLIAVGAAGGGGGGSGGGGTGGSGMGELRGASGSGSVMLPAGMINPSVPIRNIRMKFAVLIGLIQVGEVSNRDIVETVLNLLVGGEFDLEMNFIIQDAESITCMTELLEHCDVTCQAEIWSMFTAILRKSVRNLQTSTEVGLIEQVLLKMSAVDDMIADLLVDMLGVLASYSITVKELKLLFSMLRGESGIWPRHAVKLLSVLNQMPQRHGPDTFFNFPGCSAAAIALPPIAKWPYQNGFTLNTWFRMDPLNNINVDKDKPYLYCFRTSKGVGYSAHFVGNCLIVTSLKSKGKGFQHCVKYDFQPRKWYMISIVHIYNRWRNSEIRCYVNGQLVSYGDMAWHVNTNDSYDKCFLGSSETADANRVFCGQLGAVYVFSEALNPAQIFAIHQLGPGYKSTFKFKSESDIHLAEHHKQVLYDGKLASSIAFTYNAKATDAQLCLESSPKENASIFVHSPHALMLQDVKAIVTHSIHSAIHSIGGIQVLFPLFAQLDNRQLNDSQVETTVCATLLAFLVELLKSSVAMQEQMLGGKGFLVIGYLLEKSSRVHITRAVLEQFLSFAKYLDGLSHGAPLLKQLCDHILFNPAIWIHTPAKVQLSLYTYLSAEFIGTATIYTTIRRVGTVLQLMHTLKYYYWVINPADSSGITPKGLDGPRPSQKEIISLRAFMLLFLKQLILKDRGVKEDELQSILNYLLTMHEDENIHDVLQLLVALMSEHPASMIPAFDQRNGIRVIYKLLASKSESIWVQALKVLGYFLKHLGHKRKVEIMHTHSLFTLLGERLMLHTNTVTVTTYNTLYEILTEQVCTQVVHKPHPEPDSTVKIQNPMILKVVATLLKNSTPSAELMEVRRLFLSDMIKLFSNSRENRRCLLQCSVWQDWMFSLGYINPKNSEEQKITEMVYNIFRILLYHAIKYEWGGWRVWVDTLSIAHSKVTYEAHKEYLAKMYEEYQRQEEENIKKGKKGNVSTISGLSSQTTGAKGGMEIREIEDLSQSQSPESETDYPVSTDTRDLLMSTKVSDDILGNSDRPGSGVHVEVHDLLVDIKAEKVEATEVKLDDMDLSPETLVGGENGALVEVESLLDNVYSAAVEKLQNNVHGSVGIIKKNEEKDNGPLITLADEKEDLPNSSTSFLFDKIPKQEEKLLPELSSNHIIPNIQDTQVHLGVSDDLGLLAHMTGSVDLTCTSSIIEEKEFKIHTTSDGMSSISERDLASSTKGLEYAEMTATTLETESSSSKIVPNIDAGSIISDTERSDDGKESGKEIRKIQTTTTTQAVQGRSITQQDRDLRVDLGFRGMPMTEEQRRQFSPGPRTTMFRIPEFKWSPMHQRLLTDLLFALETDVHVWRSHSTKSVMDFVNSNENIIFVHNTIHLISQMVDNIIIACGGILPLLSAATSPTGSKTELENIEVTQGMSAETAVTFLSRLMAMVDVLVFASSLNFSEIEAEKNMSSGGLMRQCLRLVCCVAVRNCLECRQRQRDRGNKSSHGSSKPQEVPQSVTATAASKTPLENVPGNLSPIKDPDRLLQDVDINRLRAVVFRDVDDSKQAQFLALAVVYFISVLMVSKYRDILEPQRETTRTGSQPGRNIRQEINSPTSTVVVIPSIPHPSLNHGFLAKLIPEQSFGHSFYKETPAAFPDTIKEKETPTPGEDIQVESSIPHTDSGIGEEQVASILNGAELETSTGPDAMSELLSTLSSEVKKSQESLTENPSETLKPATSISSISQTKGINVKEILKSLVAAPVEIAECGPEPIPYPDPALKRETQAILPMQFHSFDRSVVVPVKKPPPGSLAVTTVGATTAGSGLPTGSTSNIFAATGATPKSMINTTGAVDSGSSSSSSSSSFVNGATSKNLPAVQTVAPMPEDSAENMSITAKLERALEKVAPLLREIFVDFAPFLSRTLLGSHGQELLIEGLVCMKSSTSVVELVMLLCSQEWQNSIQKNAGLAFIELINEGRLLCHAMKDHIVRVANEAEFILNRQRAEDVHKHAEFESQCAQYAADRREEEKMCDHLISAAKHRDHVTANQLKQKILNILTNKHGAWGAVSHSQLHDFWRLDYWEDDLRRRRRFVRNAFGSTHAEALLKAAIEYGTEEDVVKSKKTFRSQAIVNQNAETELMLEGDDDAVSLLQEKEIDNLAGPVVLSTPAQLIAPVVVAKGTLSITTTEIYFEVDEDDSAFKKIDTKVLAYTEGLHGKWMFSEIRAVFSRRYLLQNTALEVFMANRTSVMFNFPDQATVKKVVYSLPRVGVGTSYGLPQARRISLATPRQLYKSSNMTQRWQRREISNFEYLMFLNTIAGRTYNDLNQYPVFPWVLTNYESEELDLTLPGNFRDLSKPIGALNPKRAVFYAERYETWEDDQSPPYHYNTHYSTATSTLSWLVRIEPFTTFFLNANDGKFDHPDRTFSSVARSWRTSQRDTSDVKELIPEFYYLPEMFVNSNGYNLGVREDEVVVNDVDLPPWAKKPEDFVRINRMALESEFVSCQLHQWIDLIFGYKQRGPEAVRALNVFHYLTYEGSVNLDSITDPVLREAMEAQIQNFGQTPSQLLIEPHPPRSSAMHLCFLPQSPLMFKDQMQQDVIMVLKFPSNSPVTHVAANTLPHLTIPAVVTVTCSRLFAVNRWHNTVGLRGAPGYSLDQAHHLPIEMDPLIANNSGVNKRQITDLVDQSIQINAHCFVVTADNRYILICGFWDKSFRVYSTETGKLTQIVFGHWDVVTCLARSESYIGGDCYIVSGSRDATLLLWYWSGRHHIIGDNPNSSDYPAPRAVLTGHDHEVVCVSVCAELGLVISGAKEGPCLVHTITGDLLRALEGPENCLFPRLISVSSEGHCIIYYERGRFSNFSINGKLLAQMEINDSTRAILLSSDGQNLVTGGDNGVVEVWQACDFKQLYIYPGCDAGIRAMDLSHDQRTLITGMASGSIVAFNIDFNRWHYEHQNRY
UniProt Q15021, whole entry, looked up: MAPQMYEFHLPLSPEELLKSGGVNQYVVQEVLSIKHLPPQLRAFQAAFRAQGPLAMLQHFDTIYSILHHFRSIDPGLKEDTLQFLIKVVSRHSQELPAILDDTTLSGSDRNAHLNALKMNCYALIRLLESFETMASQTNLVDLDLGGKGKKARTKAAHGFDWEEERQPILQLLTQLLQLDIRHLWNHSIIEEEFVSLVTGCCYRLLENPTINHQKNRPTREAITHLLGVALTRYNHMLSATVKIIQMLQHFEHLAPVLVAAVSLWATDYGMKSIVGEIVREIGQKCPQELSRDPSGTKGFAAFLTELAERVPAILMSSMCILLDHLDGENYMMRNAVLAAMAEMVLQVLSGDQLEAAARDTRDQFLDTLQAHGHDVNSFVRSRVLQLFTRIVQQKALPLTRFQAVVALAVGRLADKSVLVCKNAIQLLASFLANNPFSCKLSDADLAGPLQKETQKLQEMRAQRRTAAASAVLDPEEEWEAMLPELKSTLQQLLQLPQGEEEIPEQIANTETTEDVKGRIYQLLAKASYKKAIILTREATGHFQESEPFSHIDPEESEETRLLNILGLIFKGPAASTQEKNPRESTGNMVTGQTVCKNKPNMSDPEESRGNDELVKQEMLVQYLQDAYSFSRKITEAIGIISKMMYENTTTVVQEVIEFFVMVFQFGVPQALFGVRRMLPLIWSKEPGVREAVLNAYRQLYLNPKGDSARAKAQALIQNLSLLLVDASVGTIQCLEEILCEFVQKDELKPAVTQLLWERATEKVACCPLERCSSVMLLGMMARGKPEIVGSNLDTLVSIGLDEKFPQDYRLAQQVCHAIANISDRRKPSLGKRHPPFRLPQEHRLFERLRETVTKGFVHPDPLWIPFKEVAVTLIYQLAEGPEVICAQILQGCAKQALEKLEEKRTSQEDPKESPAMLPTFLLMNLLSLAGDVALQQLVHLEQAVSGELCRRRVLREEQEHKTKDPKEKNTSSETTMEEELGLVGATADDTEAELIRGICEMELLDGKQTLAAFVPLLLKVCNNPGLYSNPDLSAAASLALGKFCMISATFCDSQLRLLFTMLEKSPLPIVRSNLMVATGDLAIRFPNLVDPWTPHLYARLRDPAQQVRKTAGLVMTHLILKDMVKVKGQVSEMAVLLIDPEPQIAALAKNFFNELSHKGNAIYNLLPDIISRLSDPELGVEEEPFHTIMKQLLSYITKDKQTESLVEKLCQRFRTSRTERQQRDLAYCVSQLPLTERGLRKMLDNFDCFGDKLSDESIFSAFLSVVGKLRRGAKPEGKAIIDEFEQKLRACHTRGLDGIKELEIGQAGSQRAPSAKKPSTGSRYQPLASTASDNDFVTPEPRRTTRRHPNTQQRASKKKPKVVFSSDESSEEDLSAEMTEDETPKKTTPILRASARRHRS
UniProt Q99747: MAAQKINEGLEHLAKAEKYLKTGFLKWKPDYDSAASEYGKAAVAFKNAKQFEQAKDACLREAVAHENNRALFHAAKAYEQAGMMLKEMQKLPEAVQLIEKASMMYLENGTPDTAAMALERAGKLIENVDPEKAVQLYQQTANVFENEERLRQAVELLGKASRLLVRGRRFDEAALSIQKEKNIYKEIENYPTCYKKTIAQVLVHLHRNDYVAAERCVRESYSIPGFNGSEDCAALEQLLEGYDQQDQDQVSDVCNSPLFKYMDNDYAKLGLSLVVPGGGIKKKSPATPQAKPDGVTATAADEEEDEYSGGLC

Key:
Assay in all cases: log2 fold change, soluble protein after heating vs DMSO (PISA); higher = thermal stabilisation; K562 lysate, 10 uM; active = over 0.2 and 3.5 SD of the protein, either way, in both replicates (recomputed)
[1] = compound: C1=CC=C(C=C1)[C@H](COC2=CC3=C(C=C2)NC(=O)N3)NC(=O)C4=CC=CN(C4=O)CC5=CC(=C(C=C5)F)F
Procedure, shortened: (§1)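 To prepare the extract, K562 pellets were dounce-homogenised in PBS pH 7.4 with 1 mM MgCl2, giving crude material at 1 mg/mL protein. This was treated with 10 μM compound for 30 min, then heated in aliquots for 3 min over 48°C-58°C before pooling and addition of NP-40 to 0.5% at 4°C. Centrifugation at 21,000xg for 90 min left soluble protein in the supernatant, which TMTpro 16plex LC-MS/MS quantified with equalised channel sums. Results are log-two fold changes in thermal stability compared with solvent controls, from duplicates.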

[2] = compound: CC1=C(SC2=C1C(=N[C@H](C3=NN=C(N32)C)CC(=O)N)C4=CC=C(C=C4)Cl)C
Procedure, shortened: as §1

[3] = compound: CC1=C2C(=CC=C1)N=C(N(C2=O)C3=CC=CC=C3C)CN4C=NC5=C(N=CN=C54)N
Procedure, shortened: as §1

[4] = compound: Cc1sc2c(c1C)C(c1ccc(Cl)cc1)=N[C@@H](CC(=O)OC(C)(C)C)c1nnc(C)n1-2
Procedure, shortened: as §1

[5] = compound: c1ccc([C@@H]2C[C@H]2NC2CCNCC2)cc1
Procedure, shortened: as §1

Measured: log2 fold change

NAGLU (UniProt P54802)
inactive: [1] -0.022 | [2] 0.084 | [3] 0.008 | [4] -0.006 | [5] 0

NAAA (UniProt Q02083)
inactive: [1] 0.068 | [2] -0.181 | [3] -0.003 | [4] 0.007 | [5] -0.138

NAF1 (UniProt Q96HR8)
inactive: [1] -0.057 | [2] 0.001 | [3] -0.007 | [4] 0.093 | [5] -0.001

NCOR1 (UniProt O75376)
inactive: [1] -0.009 | [2] 0.002 | [3] 0.035 | [4] 0.015 | [5] 0.001

NCBP1 (UniProt Q09161)
inactive: [1] 0.003 | [2] -0.01 | [3] -0.003 | [4] -0.012 | [5] 0.011

MYADM (UniProt Q96S97)
inactive: [1] -0.06 | [2] 0.017 | [3] 0.032 | [4] -0.015 | [5] -0.015

NCOA6 (UniProt Q14686)
inactive: [1] -0.021 | [2] 0.028 | [3] -0.021 | [4] -0.008 | [5] -0.007

NCOA4 isoform 4 (UniProt Q13772)
inactive: [1] -0.002 | [2] 0.043 | [3] 0.03 | [4] -0.001 | [5] -0.059

NAV1 (UniProt Q8NEY1)
inactive: [1] 0.072 | [2] 0.057 | [3] 0.041 | [4] 0.057 | [5] 0.064

MYL4 (UniProt P12829)
inactive: [1] 0.01 | [2] -0.104 | [3] -0.045 | [4] -0.015 | [5] -0.026

MVK (UniProt Q03426)
inactive: [1] 0.009 | [2] -0.001 | [3] 0.038 | [4] 0.004 | [5] -0.007

N6AMT1 (UniProt Q9Y5N5)
inactive: [1] -0.046 | [2] -0.086 | [3] -0.046 | [4] -0.011 | [5] 0.052

NAA50 (UniProt Q9GZZ1)
inactive: [1] -0.02 | [2] 0.007 | [3] 0.017 | [4] 0.034 | [5] 0.03

NAXD (UniProt Q8IW45)
inactive: [1] 0.052 | [2] 0.009 | [3] -0.014 | [4] 0.038 | [5] 0

NAPA (UniProt P54920)
inactive: [1] 0.041 | [2] -0.031 | [3] -0.009 | [4] 0.003 | [5] -0.102

MYO9A isoform 4 (UniProt B2RTY4)
inactive: [1] -0.124 | [2] -0.047 | [3] 0.094 | [4] -0.027 | [5] -0.02

NCAPH (UniProt Q15003)
inactive: [1] -0.025 | [2] 0.015 | [3] 0.021 | [4] -0.023 | [5] 0.024

NCOA7 (UniProt Q8NI08)
inactive: [1] 0.028 | [2] -0.016 | [3] 0.016 | [4] 0.013 | [5] -0.005

NBEA (UniProt Q8NFP9)
inactive: [1] -0.019 | [2] -0.008 | [3] -0.056 | [4] -0.022 | [5] -0.058

NCKAP1 isoform 2 (UniProt Q9Y2A7)
inactive: [1] -0.015 | [2] 0.003 | [3] 0.006 | [4] 0.015 | [5] 0.018

NBAS (UniProt A2RRP1)
inactive: [1] 0.052 | [2] 0.035 | [3] 0.239 | [4] 0.014 | [5] 0.022

NCLN (UniProt Q969V3)
inactive: [1] -0.022 | [2] 0.001 | [3] 0.043 | [4] -0.014 | [5] 0.011

NAT10 (UniProt Q9H0A0)
inactive: [1] 0.024 | [2] 0.038 | [3] 0.044 | [4] 0.009 | [5] 0.074

NCSTN (UniProt Q92542)
inactive: [1] -0.059 | [2] 0.037 | [3] 0.028 | [4] -0.057 | [5] -0.122

MYH11 isoform 2 (UniProt P35749)
inactive: [1] 0.037 | [2] -0.021 | [3] 0.004 | [4] -0.065 | [5] 0.025

MYO1D (UniProt O94832)
inactive: [1] -0.006 | [2] 0.002 | [3] 0.015 | [4] -0.006 | [5] 0.02

NASP (UniProt P49321)
inactive: [1] 0.027 | [2] -0.003 | [3] -0.009 | [4] 0.003 | [5] 0.011

NANP (UniProt Q8TBE9)
inactive: [1] -0.003 | [2] 0.03 | [3] -0.052 | [4] -0.068 | [5] -0.028

MYL6 (UniProt P60660)
inactive: [1] -0.041 | [2] -0.066 | [3] 0.001 | [4] -0.003 | [5] 0.016

NAXE (UniProt Q8NCW5)
inactive: [1] -0.042 | [2] -0.07 | [3] 0.026 | [4] -0.008 | [5] -0.005

NARS1 (UniProt O43776)
inactive: [1] 0.005 | [2] 0.002 | [3] 0.016 | [4] 0.018 | [5] 0.022

NCOA2 (UniProt Q15596)
inactive: [1] 0.083 | [2] 0.145 | [3] 0.044 | [4] 0.001 | [5] -0.016

MYD88 isoform 6 (UniProt Q99836)
inactive: [1] 0.019 | [2] -0.021 | [3] 0.026 | [4] -0.008 | [5] 0.013

NACC1 (UniProt Q96RE7)
inactive: [1] 0.013 | [2] -0.004 | [3] 0.027 | [4] 0.013 | [5] 0.033

NBEAL2 (UniProt Q6ZNJ1)
inactive: [1] -0.047 | [2] 0.055 | [3] 0.015 | [4] -0.029 | [5] 0.044

NANS (UniProt Q9NR45)
inactive: [1] 0.001 | [2] 0.04 | [3] -0.025 | [4] 0.04 | [5] 0.016

NCOA1 (UniProt Q15788)
inactive: [1] -0.028 | [2] 0.007 | [3] -0.059 | [4] 0.021 | [5] -0.057

NAA35 (UniProt Q5VZE5)
inactive: [1] 0.004 | [2] 0.066 | [3] -0.023 | [4] -0.002 | [5] 0.086

MYBBP1A isoform 2 (UniProt Q9BQG0)
inactive: [1] -0.003 | [2] 0.048 | [3] 0.032 | [4] 0.011 | [5] 0.079

MYO1C (UniProt O00159)
inactive: [1] -0.025 | [2] -0.038 | [3] -0.051 | [4] -0.025 | [5] 0.033

NCKIPSD (UniProt Q9NZQ3)
inactive: [1] -0.058 | [2] -0.007 | [3] -0.022 | [4] 0.017 | [5] 0

2 entries picked at random from those above:
NAT10 (UniProt Q9H0A0)
inactive: [1] 0.024 | [2] 0.038 | [3] 0.044 | [4] 0.009 | [5] 0.074

MYL4 (UniProt P12829)
inactive: [1] 0.01 | [2] -0.104 | [3] -0.045 | [4] -0.015 | [5] -0.026

Continuation:

NCOA5 (UniProt Q9HCD5)
inactive: [1] 0.113 | [2] 0.113 | [3] 0.012 | [4] 0.087 | [5] -0.017

NAT1 (UniProt P18440)
inactive: [1] 0.049 | [2] -0.021 | [3] 0.012 | [4] 0.015 | [5] 0.011

MYO6 isoform 6 (UniProt Q9UM54)
inactive: [1] 0.003 | [2] 0.023 | [3] 0.06 | [4] 0.176 | [5] 0.007

NADK2 (UniProt Q4G0N4)
inactive: [1] 0.057 | [2] 0.007 | [3] -0.006 | [4] 0.045 | [5] -0.012

MYL6B (UniProt P14649)
inactive: [1] -0.009 | [2] -0.028 | [3] -0.001 | [4] 0.012 | [5] -0.019

NCAPD2 (UniProt Q15021)
inactive: [1] -0.023 | [2] 0.028 | [3] 0.026 | [4] 0.008 | [5] 0.022

NCKAP1L (UniProt P55160)
inactive: [1] -0.002 | [2] 0.021 | [3] -0.106 | [4] -0.061 | [5] 0.005

NCOR2 (UniProt C9J0Q5)
inactive: [1] 0.045 | [2] 0.033 | [3] -0.031 | [4] 0.048 | [5] -0.006

NCEH1 (UniProt Q6PIU2)
inactive: [1] 0.077 | [2] 0.01 | [3] -0.081 | [4] -0.044 | [5] 0.015

NAE1 (UniProt Q13564)
inactive: [1] 0.036 | [2] 0.004 | [3] 0.008 | [4] 0.009 | [5] 0.023

MYDGF (UniProt Q969H8)
inactive: [1] 0.06 | [2] 0.022 | [3] 0.007 | [4] -0.014 | [5] -0.034

NAPG (UniProt Q99747)
inactive: [1] 0.016 | [2] -0.001 | [3] -0.013 | [4] 0.012 | [5] 0.037

NARF (UniProt Q9UHQ1)
inactive: [1] -0.023 | [2] -0.005 | [3] 0.017 | [4] -0.019 | [5] 0

NAB2 (UniProt Q15742)
inactive: [1] -0.065 | [2] 0.008 | [3] 0.087 | [4] 0.117 | [5] 0.058
